These results are taken from PMC5480884.

These are yes or no findings as the source states them, for the method shown. Some binding calls cover weakened binding; strength is not graded here. Tags and fused reporters may be left off the sequences shown.

The target in the experiment is T1, LacI-tagRFP-Pds5B (UniProt Q9NTI5).
T1 sequence: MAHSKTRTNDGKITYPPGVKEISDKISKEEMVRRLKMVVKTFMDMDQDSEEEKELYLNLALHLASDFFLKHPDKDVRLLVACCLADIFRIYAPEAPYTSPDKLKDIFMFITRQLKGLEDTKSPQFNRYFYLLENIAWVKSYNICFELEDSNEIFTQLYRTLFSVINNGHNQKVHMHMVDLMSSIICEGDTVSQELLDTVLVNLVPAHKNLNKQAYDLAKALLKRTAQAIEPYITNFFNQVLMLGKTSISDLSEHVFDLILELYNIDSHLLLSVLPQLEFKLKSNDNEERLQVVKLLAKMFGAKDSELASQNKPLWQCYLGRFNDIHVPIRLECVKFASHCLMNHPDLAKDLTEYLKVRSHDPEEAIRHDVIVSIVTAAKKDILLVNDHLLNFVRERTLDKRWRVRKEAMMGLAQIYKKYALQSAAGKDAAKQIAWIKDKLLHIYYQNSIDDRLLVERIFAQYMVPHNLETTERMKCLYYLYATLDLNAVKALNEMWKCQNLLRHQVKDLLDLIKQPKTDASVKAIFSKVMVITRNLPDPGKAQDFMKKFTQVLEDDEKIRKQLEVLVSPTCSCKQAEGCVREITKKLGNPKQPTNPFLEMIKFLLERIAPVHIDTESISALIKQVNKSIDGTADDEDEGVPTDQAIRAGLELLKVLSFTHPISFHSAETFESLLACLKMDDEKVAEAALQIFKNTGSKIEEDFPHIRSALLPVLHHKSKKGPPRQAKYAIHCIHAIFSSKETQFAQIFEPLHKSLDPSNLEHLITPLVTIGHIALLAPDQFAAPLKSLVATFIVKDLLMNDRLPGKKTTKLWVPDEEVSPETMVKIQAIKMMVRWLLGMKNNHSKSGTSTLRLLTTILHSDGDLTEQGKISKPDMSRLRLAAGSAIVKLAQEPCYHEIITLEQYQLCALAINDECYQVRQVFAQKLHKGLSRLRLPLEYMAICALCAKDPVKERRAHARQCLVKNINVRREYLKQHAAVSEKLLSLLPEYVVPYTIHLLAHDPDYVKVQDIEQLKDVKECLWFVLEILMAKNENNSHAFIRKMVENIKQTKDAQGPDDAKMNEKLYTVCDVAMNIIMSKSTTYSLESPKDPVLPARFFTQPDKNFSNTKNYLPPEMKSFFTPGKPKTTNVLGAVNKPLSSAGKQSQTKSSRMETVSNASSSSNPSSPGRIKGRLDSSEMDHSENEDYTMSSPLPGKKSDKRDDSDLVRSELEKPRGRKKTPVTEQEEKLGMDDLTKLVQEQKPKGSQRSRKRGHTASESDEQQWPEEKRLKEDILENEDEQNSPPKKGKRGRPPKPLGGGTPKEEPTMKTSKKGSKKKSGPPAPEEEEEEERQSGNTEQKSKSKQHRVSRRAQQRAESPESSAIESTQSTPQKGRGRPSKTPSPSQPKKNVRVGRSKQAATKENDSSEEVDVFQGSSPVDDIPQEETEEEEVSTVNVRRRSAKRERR
As to the kind of experiment: LacI/LacO tethering with immunofluorescence microscopy; LacI fusion tethered to a LacO array on chromosome 1 of U-2 OS-LacO Haspin-YFP cells; cells blocked in mitosis (STLC, nocodazol), chromosome spreads stained with antibodies against GFP and RFP.

B1: Haspin-YFP (endogenously tagged Haspin) (enzyme, UniProt Q8TF76 1-798)
chain: MAASLPGPGSRLFRTYGAADGRRQRRPGREAAQWFPPQDRRRFFNSSGSSDASIGDPSQSDDPDDPDDPDFPGSPVRRRRRRPGGRVPKDRPSLTVTPKRWKLRARPSLTVTPRRLGLRARPPQKCSTPCGPLRLPPFPSRDSGRLSPDLSVCGQPRDGDELGISASLFSSLASPCPGSPTPRDSVISIGTSACLVAASAVPSGLHLPEVSLDRASLPCSQEEATGGAKDTRMVHQTRASLRSVLFGLMNSGTPEDSEFRADGKNMRESCCKRKLVVGNGPEGPGLSSTGKRRATGQDSCQERGLQEAVRREHQEASVPKGRIVPRGIDRLERTRSSRKSKHQEATETSLLHSHRFKKGQKLGKDSFPTQDLTPLQNVCFWTKTRASFSFHKKKIVTDVSEVCSIYTTATSLSGSLLSECSNRPVMNRTSGAPSSWHSSSMYLLSPLNTLSISNKKASDAEKVYGECSQKGPVPFSHCLPTEKLQRCEKIGEGVFGEVFQTIADHTPVAIKIIAIEGPDLVNGSHQKTFEEILPEIIISKELSLLSGEVCNRTEGFIGLNSVHCVQGSYPPLLLKAWDHYNSTKGSANDRPDFFKDDQLFIVLEFEFGGIDLEQMRTKLSSLATAKSILHQLTASLAVAEASLRFEHRDLHWGNVLLKKTSLKKLHYTLNGKSSTIPSCGLQVSIIDYTLSRLERDGIVVFCDVSMDEDLFTGDGDYQFDIYRLMKKENNNRWGEYHPYSNVLWLHYLTDKMLKQMTFKTKCNTPAMKQIKRKIQEFHRTMLNFSSATDLLCQHSLFK
As for B1, the binding result is given as “binds”.
